From publication PMC8297594 come the findings set out here.

No constants are given. Whether binding was seen depends on the method and setting. Binding seen in cells or lysates may run through a third protein. A result given as binding can be weak or reduced; the word gives no strength. Sequences can lack the tags named with a protein.

Sequences and labels used below:
B1: EGFP-MyD88 (zebrafish myeloid differentiation factor 88) (protein, UniProt Q5XJ85 1-284)
chain: MASKLSIDHEAIPVTALNCSFRKKLGLFLNPTNTVAADWRTVAELMDFTYLEIKNFEKRDCPFEKVLTDWETRPDATVANLLSILEKAERKDVISELKEILDDDCRKYMERQQRKPLQVPVVDSCGPRTQEREGITLYDDPQGLTPETFDAFICYCQSDIQFVHEMIKQLEHTEYNLKLCVFDRDVLPGTCVWTIASELIEKRCKRMVVVISDDYLDSDACDFQTKFALSLCPGARTKRLIPVVYKSMKRPFPSILRFLTICDYSKPCTQVWFWTRLAKALSLP
B2: EGFP-tagged MyD88 DD (11–101 aa), zebrafish (domain or fragment, UniProt Q5XJ85 11-101)
chain: AIPVTALNCSFRKKLGLFLNPTNTVAADWRTVAELMDFTYLEIKNFEKRDCPFEKVLTDWETRPDATVANLLSILEKAERKDVISELKEIL
B3: EGFP-tagged MyD88 TIR domain (148–284 aa), zebrafish (domain or fragment, UniProt Q5XJ85 148-284)
chain: TFDAFICYCQSDIQFVHEMIKQLEHTEYNLKLCVFDRDVLPGTCVWTIASELIEKRCKRMVVVISDDYLDSDACDFQTKFALSLCPGARTKRLIPVVYKSMKRPFPSILRFLTICDYSKPCTQVWFWTRLAKALSLP
B4: Flag-TRIF (zebrafish TIR domain-containing adapter inducing interferon-β) (protein, UniProt Q1LUQ2 1-566)
chain: MAEGGMKPSEGGCPNLGKVFEILSQAPQERLFSLTYKMGRKPTEELVHAMCLIFLKKHEAAHAKLTAIKDSRVGNYLAEMIKTHGERLNCSHIGGFMQTDVNSLLDIARIFAILVQESLCDKSHRDKAYCKAVESCKTAGLLSLDIEEEVKQVCGPDVISTSNSELPTEMCNPNSLKVSDINPDPLPPNSNLDVSSYYLEISSPTASEGNIEESKPMSLHTPTEFKSQNNLRSCHDKSTNIFANSQAQTAVVNDTASSNRCRHDSRPSQFVMSKNTNFSSSPNDGAKPKAQPINANDRKPPTQDNSFHPTLLSDIDETFYAFVILHEAEDADEAQRLREKLEGIISANGATFSEDFAQAGRSTLRCIEDAIDNSAFVLLLLTQNFKSNQSMTTTDSAIVNSLEHHHKLNSVIPLLPRENRLSRKNIPLVLQTKVPLDESNRTFERKALKALSQDAVEKQRKIWMKKQTLKKLEEEYKRRQEENFINANLRLEREKLARLKLESESPHNNMFHSSSAQPPSCGPMLQQHDSWPQKPSYIHIENAQNIMIGNHSTMNFEHTKSSAEES

The test addresses Myc-TcpAh (TIR domain protein of Aeromonas hydrophila JBN2301) (Aeromonas hydrophila JBN2301). In words: co-IP; HEK293T co-transfected (plasmids 1:1, 48 h); lysis in 20 mM Tris-HCl pH 7.5, 150 mM NaCl, 1 mM EDTA, 1% Triton X-100; mouse anti-Myc or anti-Flag mAb at 4°C overnight, protein A-agarose; Western blot with anti-Myc, anti-GFP or anti-Flag.
Turning to B1, the binding result is “binds”. Then B2, with “binds”; and B3, with “binds”; and B4, with “no binding”.
